For assay [1], the target named is T1, polypeptide set forth in SEQ ID NO: 273 (human).
T1 sequence (peptide): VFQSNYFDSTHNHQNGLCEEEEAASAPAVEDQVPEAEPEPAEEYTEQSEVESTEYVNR
In words: trypsin digest of antibody-CAPRIN-1 complex, protein A capture, LC-MS.

The target of assay [2] is CAPRIN-1 protein on the cell surface of human cancer cells (human) (UniProt Q14444). In words: flow cytometry on Hep3B, HepG2, SK-Hep-1, SW480, as in Example 10.

Results on 5 molecules are retold here after patent publication US20150218285A1.

Substitutions are numbered along the chain they refer to. Results are given in words; binding and its absence hold for the method and conditions named. For some assays here: Binding seen in cells or lysates may run through a third protein. Some results given as binding are weak or reduced against the parent protein; the word gives no strength.

B1: mouse monoclonal antibody #12 (antibody, V domains shown)
VH: EVQLHQFGAELVKPGASVKISCKASGYTFTDYNMDWVKQSHGKSLEWIGDINPNYDSTSYNQKFKGKATLTVDKSSSTAYMELRSLTSEDTAVYYCARSRSYDYEGFAYWGQGTLVTVSA
VL: DIQMTQSPASLSASVGETVTITCRASGNIHNYLAWYQQKQGKSPQLLVYNAKTLADGVPSRFSGSGSGTQYSLKINSLQPEDFGSYYCQHFWSTLTFGAGTKLELKR
For the molecule B1, the binding entry in assay [1] was “binds”.

B2: anti-CAPRIN-1 monoclonal antibody #25 (antibody, V domains shown)
VH: GPGLVQPSQSLSITCTVSGFSLTTYDLHWVRQSPGKGLEWLGVIWSGGSTDYNAAFISRLSISKDNSKSQVFFKMNSLQANDTAIYYCARNYGYSAWFAYWGQGTLVTVSA
VL: DVLMTQTPLSLPVSLGDQASISCRSSQSIVHSNGNTYLEWYLQKPGQSPKLLIYKVSNRFSGVPDRFSGSGSGTDFTLKISRVEAEDLGVYYCFQGSHVPLTFGAGTKLELKR
On to B2, for which, in assay [2], the binding entry is “binds”.

B3: anti-CAPRIN-1 monoclonal antibody #27 (antibody, V domains shown)
VH: GGGLVQPGGSMRLSCVASGFTFSNSWFNWVRQSPEKGLEWVAEIRLTSDNYAIYYAESVKGRFTISRDDSKSSVYLQMNNLRAEDTGIYYCTRPETARATFAYWGQGTTVTVSS
VL: B2 VL with L51V, S57F, L101R, A105G, E110N, L111Q, K112T, R113G
In the case of B3, the binding entry in assay [2] is “binds”.

B4: anti-CAPRIN-1 monoclonal antibody #29 (antibody, V domains shown)
VH: GAELVKPGASVKLSCTASGLNIRDIYMHWVKQRPEQGLEWIGKIDPANGNTKYDPKFQGKATITADTSSNTAYVQLSSLTSEDTAVYYCAGTGDYWGQGTTVTVSS
VL: GTCGDIVMSQSPSSLAVSAGEKVTMSCKSSQSLLNSRTRKNYLAWVQHKPGQSPRLLIYWASTRESGVPDRFTGSGSGTDFTLTISSVQAEDLAVYYCRQSYNLVTFGAGPS
As for B4, in assay [2], the binding result is recorded as “binds”.

B5: anti-CAPRIN-1 monoclonal antibody #28 (antibody, V domains shown)
VH: GPDLVKPGASVKISCKASGYSFTAYYMHWVKQSHGKSLEWIGRVNPNNGGTTYNQKFKGKAILTVDKSSSTAYMELRSLTFEDSAVYYCARRIYYGYFDYWGQGTTVTVSS
VL: AFFAVSLGQRATISCKASQSVDYDGDSYMNWYQQKPGQPPKLLIYVASNLESGVPARFSGSGSGTDFTLNIHPVEEEDAATYYCQQSNEDPYTFGGGTKLEIKQ
B5: the binding entry in assay [2] is “binds”.
